PubChem BioAssay AID1259308, NCATS – 2017
Screen: 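Genes whose loss raises luciferase production in HEK293 cells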 (primary screen). System: human HEK293 embryonic kidney cells stably expressing firefly luciferase (HEK-CMV-Luc2-Hygro). Knock-down reagent: single siRNA against human genes, 0.8 pmol siRNA per well. Time to read-out: 72 h. Measurement: 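Reporter luminescence and viable-cell signal on separate replicate plates, given as percent of non-targeting control and median/MAD z-scores, plus per-cell luciferase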. Direction: total luciferase, z-score and total luciferase, % of control: higher = more reporter protein produced; luciferase per cell, z-score: higher = more reporter output per viable cell; viable cells, % of control: higher = more viable cells. Rule for the call: 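An siRNA counts as active if its total luciferase robust z-score exceeds 3; genes with two or more such siRNAs out of three were retested with fresh siRNAs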. Meaning of the calls: active = raised luciferase; inactive = no rise.
The whole screen tested about 59,000 reagents; shown is a part drawn at random. About 1,510 of them (2.6%) were called active. 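Calls use total luciferase alone and ignore viability, so some active siRNAs may act by altering cell number.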 Entries without a mark were called inactive. The numbers tell different reagents against one gene apart.

The opening 2 records, ahead of the listing:
target gene	reagent	total luciferase, z-score	total luciferase, % of control	luciferase per cell, z-score	viable cells, % of control
SMAD3 (SMAD family member 3)	1	3.07 (active)	143	1.71	102
SMAD3 (SMAD family member 3)	2	1.5	112	1.8	77.6

Main list, from the first entry:
target gene	reagent	total luciferase, z-score	total luciferase, % of control	luciferase per cell, z-score	viable cells, % of control
SMAD3 (SMAD family member 3)	1	3.07 (active)	143	1.71	102
SMAD3 (SMAD family member 3)	2	1.5	112	1.8	77.6
SMAD3 (SMAD family member 3)	3	1.4	110	1.42	84.4
LAMB1 (laminin subunit beta 1)	1	-1.6	50	-0.84	69.7
LAMB1 (laminin subunit beta 1)	2	1.81	118	0.678	110
LAMB1 (laminin subunit beta 1)	3	0.29	87.7	-0.133	101
UBE3B (ubiquitin protein ligase E3B)	1	0.492	91.7	0.323	94.1
UBE3B (ubiquitin protein ligase E3B)	2	0.155	85	0.786	77.2
UBE3B (ubiquitin protein ligase E3B)	3	-0.235	77.2	-0.464	97.5
CCDC38 (coiled-coil domain containing 38)	1	-0.0721	80.5	1.16	66.3
CCDC38 (coiled-coil domain containing 38)	2	-0.21	77.7	0.114	84.3
CCDC38 (coiled-coil domain containing 38)	3	0.301	87.9	0.272	91.4
PJVK (pejvakin)	1	0.539	92.6	0.606	88.2
PJVK (pejvakin)	2	1.71	116	1.02	99.1
PJVK (pejvakin)	3	-1.31	55.8	-0.83	77.6
PEX39 (peroxisomal biogenesis factor 39)	1	-0.279	76.3	0.366	77.5
PEX39 (peroxisomal biogenesis factor 39)	2	1.56	113	0.713	105
PEX39 (peroxisomal biogenesis factor 39)	3	0.515	92.1	-0.0973	106
GLRA2 (glycine receptor alpha 2)	1	-0.0365	81.2	0.779	73.9
GLRA2 (glycine receptor alpha 2)	2	-0.898	64	-1.34	102
GLRA2 (glycine receptor alpha 2)	3	0.28	87.5	0.913	76.9
PKNOX2 (PBX/knotted 1 homeobox 2)	1	-0.0905	80.1	0.278	83.2
PKNOX2 (PBX/knotted 1 homeobox 2)	2	0.441	90.7	0.622	86
PKNOX2 (PBX/knotted 1 homeobox 2)	3	0.21	86.1	-0.334	105
IGFLR1 (IGF like family receptor 1)	1	0.632	94.5	1.07	79.6
IGFLR1 (IGF like family receptor 1)	2	0.095	83.8	0.108	91
IGFLR1 (IGF like family receptor 1)	3	0.736	96.5	0.513	94.2
ADAM21 (ADAM metallopeptidase domain 21)	1	-0.025	81.4	-0.286	98.1
ADAM21 (ADAM metallopeptidase domain 21)	2	0.723	96.3	0.382	97.3
ADAM21 (ADAM metallopeptidase domain 21)	3	0.424	90.3	0.163	96.7
PLXNA2 (plexin A2)	1	-1.2	58	-0.495	73.8
PLXNA2 (plexin A2)	2	-0.386	74.2	-0.216	87.8
PLXNA2 (plexin A2)	3	-0.146	79	0.52	77
RIPOR1 (RHO family interacting cell polarization regulator 1)	1	-0.378	74.4	-0.685	99.5
RIPOR1 (RHO family interacting cell polarization regulator 1)	2	0.76	97	0.702	90.1
RIPOR1 (RHO family interacting cell polarization regulator 1)	3	-0.261	76.7	0.427	76.6
STK17B (serine/threonine kinase 17b)	1	-1.32	55.7	0.126	60.2
STK17B (serine/threonine kinase 17b)	2	-0.329	75.3	-0.919	107
STK17B (serine/threonine kinase 17b)	3	0.996	102	1.97	67.7
DNAJB6 (DnaJ heat shock protein family (Hsp40) member B6)	1	-0.373	74.5	-0.204	87.8
DNAJB6 (DnaJ heat shock protein family (Hsp40) member B6)	2	-0.401	73.9	0.00922	82.4
DNAJB6 (DnaJ heat shock protein family (Hsp40) member B6)	3	0.0956	83.8	0.058	92.2
EFCAB3 (EF-hand calcium binding domain 3)	1	0.283	87.5	0.219	92.3
EFCAB3 (EF-hand calcium binding domain 3)	2	0.0196	82.3	-0.0341	92.8
EFCAB3 (EF-hand calcium binding domain 3)	3	-0.55	71	-0.4	88.1
MTHFD1LP1 (MTHFD1L pseudogene 1)	1	0.0594	83.1	-0.849	116
MTHFD1LP1 (MTHFD1L pseudogene 1)	2	4 (active)	162	4.23	59.2
MTHFD1LP1 (MTHFD1L pseudogene 1)	3	-0.314	75.6	-0.612	99.3
CERK (ceramide kinase)	1	0.228	86.4	0.292	89.4
CERK (ceramide kinase)	2	-1.52	51.7	-2.1	100
CERK (ceramide kinase)	3	-0.142	79.1	-0.601	103
ST7 (suppression of tumorigenicity 7)	1	-0.472	72.5	-0.405	90.1
ST7 (suppression of tumorigenicity 7)	2	2.56	133	2.79	71.1
ST7 (suppression of tumorigenicity 7)	3	0.122	84.3	-0.687	113
ST13 (ST13 Hsp70 interacting protein)	1	1.21	106	1.2	86.3
ST13 (ST13 Hsp70 interacting protein)	2	-0.595	70	-0.644	92.7
ST13 (ST13 Hsp70 interacting protein)	3	0.448	90.8	0.143	97.7
